{"source": "patent US7314866B2", "about": "“Ku-70-derived Bax-suppressing peptides and use thereof for the protection of damaged cells” (Bloodcenter of Wisconsin, Inc., priority 2002, dated 2008)", "tested_on": "HeLa cells and Du145 cells", "test": "Fluorescent microscopy of FITC-labeled peptide localization", "format": "cell-based, human", "note": "Where a SMILES comes first, the peptide text is derived from it. The star is where a group is joined. FITC = O=C1OC2(c3ccc(O)cc3Oc3cc(O)ccc32)c2ccc(NC(=S)*)cc21", "data": [{"smiles": "CSCC[C@H](NC(=O)[C@@H]1CCCN1C(=O)[C@@H](NC(=S)Nc1ccc2c(c1)C(=O)OC21c2ccc(O)cc2Oc2cc(O)ccc21)C(C)C)C(=O)N[C@@H](CC(C)C)C(=O)N[C@@H](CCCCN)C(=O)O", "note": "[FITC-labeled BIP] ({FITC}-VPMLK-OH; N-terminus and C-terminus assumed)", "values": [{"measurement": "Subcellular localization of the peptide", "setting": "Bax-deficient Du145 cells", "result": "distributed in both the cytosol and the nucleus"}, {"measurement": "Subcellular localization of the peptide", "setting": "HeLa cells", "result": "localized mostly in the cytosol"}]}]}
